Values of other authors as cited in patent US20050192349A1, “Isolation of the peroxisome proliferation-activated receptor-gamma (PPARgamma) ligand and methods of use thereof” (Beth Israel Deaconess Medical Center, Inc., priority 2002, published 2005).
For at least one compound, name, drawing or mass did not settle the structure.

Tested on: carotid arteries
Settings: in rodents; cited from earlier work

## Cc1c(C)c2c(c(C)c1O)CCC(C)(COc1ccc(CC3SC(=O)NC3=O)cc1)O2 (centres unmarked) [Troglitazone]
  intima and media thickness of carotid arteries: decrease the intima and media thickness of carotid arteries
  smooth muscle cell proliferation: inhibit smooth muscle cell proliferation
